Taken from: PubChem BioAssay AID1159591 (NIAID, 2016)
This is an unselected part of 756 deposited reagents. Of all reagents, 130 (17%) were called active. 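Active calls include both lower and higher Tnf reporter signal.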 The numbers tell different reagents against one gene apart. No sequences are given here. Not stated in the record: the amount of reagent.

Screen: 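Which TLR signalling genes macrophages need for R848-driven Tnf promoter activity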
Cell system: mouse RAW264.7 G9 macrophage reporter clone (GFP-p65, Tnf promoter-mCherry)
Reagent: single siRNA against mouse genes
Time to read-out: cells assayed 48 to 72 hours after siRNA transfection; R848 for 16 hours before fixing
Treatment: R848 (TLR7/8 agonist) for 16 hours before fixation; dose not given
Read-out: 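After R848 for 16 hours, nuclear Tnf promoter mCherry signal imaged minus background, scaled per plate by median and MAD into robust z against non-targeting controls, averaged across replicates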
Reading the numbers: mean Tnf reporter z-score: higher = stronger Tnf promoter reporter signal than controls
Hit rule: 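Activity score from absolute z: steps above 1, 1.5, 2 and 2.5 give 25 to 100; active cut not stated, but active genes here sit near z -1.5 or below, or 1.5 or above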
Calls: active = reporter clearly up or down; inactive = little reporter change

After knock-down of Itgax #1 the results were mean Tnf reporter z-score 0.767; inactive. Against Itgax #2, the entry reads mean Tnf reporter z-score -0.337; inactive. With knock-down of Itgax #3, the record shows mean Tnf reporter z-score -1.38; inactive. Itgax #4 showed mean Tnf reporter z-score 0.0214; inactive. Against Itgax #5, the entry reads mean Tnf reporter z-score 0.973; inactive. Depletion of Itgax #6 gave: mean Tnf reporter z-score 0.67; inactive.

Mapk9 #1 showed mean Tnf reporter z-score 0.0548; inactive. Against Mapk9 #2, the values are mean Tnf reporter z-score -0.308; inactive. With knock-down of Mapk9 #3, the screen gave mean Tnf reporter z-score -1.71; active. With knock-down of Mapk9 #4, the record shows mean Tnf reporter z-score 0.762; inactive. With knock-down of Mapk9 #5, the screen gave mean Tnf reporter z-score -0.553; inactive. Silencing of Mapk9 #6 resulted in: mean Tnf reporter z-score 0.43; inactive.

No new results follow: entries from further up.
Mapk9 #5: mean Tnf reporter z-score = -0.553; activity call = inactive
Mapk9 #6: mean Tnf reporter z-score = 0.43; activity call = inactive

More reagents follow:
With knock-down of Tlr5 #1, the record shows mean Tnf reporter z-score 0.143; inactive. Tlr5 #2 scored mean Tnf reporter z-score 1; inactive. For Tlr5 #3 the deposit lists mean Tnf reporter z-score -0.178; inactive. Knock-down of Tlr5 #4 came out at: mean Tnf reporter z-score 0.462; inactive. After knock-down of Tlr5 #5, the record shows mean Tnf reporter z-score -0.846; inactive. Tlr5 #6 showed mean Tnf reporter z-score 0.781; inactive.

For Irak1 #1, the entry reads mean Tnf reporter z-score -0.865; inactive. Against Irak1 #2, the entry reads mean Tnf reporter z-score 0.538; inactive. Against Irak1 #3, the values are mean Tnf reporter z-score -0.413; inactive. Knock-down of Irak1 #4 came out at: mean Tnf reporter z-score 1.63; active. Irak1 #5 scored mean Tnf reporter z-score 0.197; inactive. Depletion of Irak1 #6 gave: mean Tnf reporter z-score -0.704; inactive.

Silencing of Fadd #1 resulted in: mean Tnf reporter z-score -0.209; inactive. After knock-down of Fadd #2, the screen gave mean Tnf reporter z-score -1.3; inactive. For Fadd #3, the values are mean Tnf reporter z-score -1.34; inactive. After knock-down of Fadd #4 the results were mean Tnf reporter z-score 1.07; inactive. Knock-down of Fadd #5 resulted in: mean Tnf reporter z-score -0.511; inactive. Silencing of Fadd #6 resulted in: mean Tnf reporter z-score -0.564; inactive.

Silencing of Akt3 #1 resulted in: mean Tnf reporter z-score -1.13; inactive. Silencing of Akt3 #2 came out at: mean Tnf reporter z-score 0.819; inactive. With knock-down of Akt3 #3, the record shows mean Tnf reporter z-score -0.729; inactive. Knock-down of Akt3 #4 resulted in: mean Tnf reporter z-score -0.59; inactive. Against Akt3 #5 the deposit lists mean Tnf reporter z-score -0.0273; inactive. Akt3 #6 gave mean Tnf reporter z-score -0.981; inactive.
